The test system of the test is CD8F1 mice, subcutaneous mammary adenocarcinoma, T/C%. As to the kind of experiment: NCI In Vivo Anticancer Drug Screen. Data for tumor model Mammary Adenocarcinoma CD8F1 (subcutaneous) in CD8F1. The settings on record: higher T/C = larger tumour. Put shortly: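 Compound-treated versus vehicle-treated mice with transplantable tumors; survival or tumor size compared as T/C.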

Setting [1] is: T/C endpoint: median tumor weight (est.), dose: 50.0 mg/kg/injection, schedule: Q07DX005 (ip), vehicle: saline with Tween-80.
[2] abbreviates: T/C endpoint: median tumor weight (est.), dose: 100.0 mg/kg/injection, schedule: Q07DX005 (ip), vehicle: saline with Tween-80.
Setting [3] is: T/C endpoint: median tumor weight change, dose: 500.0 mg/kg/injection, schedule: Q01DX001 (ip), vehicle: saline with Tween-80.
[4] abbreviates: T/C endpoint: median tumor weight change, dose: 1000.0 mg/kg/injection, schedule: Q01DX001 (ip), vehicle: saline with Tween-80.
Setting [5] is: T/C endpoint: median tumor weight change, dose: 125.0 mg/kg/injection, schedule: Q01DX001 (ip), vehicle: saline with Tween-80.
The mark [6] stands for this setting: T/C endpoint: median tumor weight change, dose: 250.0 mg/kg/injection, schedule: Q01DX001 (ip), vehicle: saline with Tween-80.

The list shows only some results of the screen, not a fair sample: it is rich in T/C values a quarter to a half above the control, in often repeated tests (any T/C) and in doses without a T/C. Other doses and runs of a compound stand elsewhere. T/C gives the treated animals as a percentage of the vehicle group. Schedule codes are those of the source, read here as Q, the interval in days (D) or hours (H), X, the number of doses. Some T/C values are negative: the treated tumours shrank. Some doses were run more than once; the results are listed from low to high. Some T/C values carry the count of animals alive at the toxicity check (mostly the fifth day); where none is given, no animal had died by that day. Some doses have a count of surviving animals in place of a T/C: the source holds a T/C of zero for them, seemingly a mark for toxic or unscored doses. Survivors were counted at the toxicity check, usually on the fifth day, unless a day is given; later deaths do not show.

`ClCCCN1CCN(CCCl)CC1`: the survivor count is, setting by setting: (T/C endpoint: median tumor weight change, dose: 66.7 mg/kg/injection, schedule: Q01DX001 (ip), vehicle: saline) 0 of 10 on day 32; (T/C endpoint: median tumor weight change, dose: 80.0 mg/kg/injection, schedule: Q01DX001 (ip), vehicle: saline) 0 of 10 on day 24 and 0 of 10 on day 25; (T/C endpoint: median tumor weight change, dose: 111.0 mg/kg/injection, schedule: Q01DX001 (ip), vehicle: saline) 0 of 10 on day 32; (T/C endpoint: median tumor weight change, dose: 160.0 mg/kg/injection, schedule: Q01DX001 (ip), vehicle: saline) 0 of 10 on day 25.
With `COc1cc2cc(c1Cl)N(C)C(=O)C[C@H](OC(=O)[C@H](C)N(C)C(C)=O)[C@]1(C)O[C@H]1[C@H](C)[C@@H]1C[C@@](O)(NC(=O)O1)[C@H](OC)C=C/C=C(\C)C2`, the T/C (T/C endpoint: median tumor weight change, dose: 125.0 micrograms/kg/injection, schedule: Q01DX001 (ip), vehicle: Klucel (hydroxypropylcellulose) (HPC), evaluated on day 33) was 136 % of control. Also, the survivor count (T/C endpoint: median tumor weight change, dose: 2000.0 micrograms/kg/injection, schedule: Q01DX001 (ip), vehicle: Klucel (hydroxypropylcellulose) (HPC)) is 2 of 10 on day 36.
As for `O=C1C2CC=CCC2C(=O)N1SC(Cl)(Cl)Cl` (stereo not given), the survivor count by setting is: under setting [1], 4 of 10 on day 30; under setting [2], 1 of 10 on day 30.
`CCCC(=O)Oc1ccc(/C=N/NC(N)=S)nc1`: the T/C (T/C endpoint: median tumor weight (est.), dose: 400.0 mg/kg/injection, schedule: Q07DX005 (ip), vehicle: saline with Tween-80, evaluated on day 30) is 144 % of control [8 of 10 alive on day 30].
Regarding `FC(F)(F)c1nc2nc(Cl)c(Cl)nc2[nH]1`, the survivor count was 4 of 10 on day 31 under setting [3] and 0 of 10 on day 31 under setting [4].
As to `CCc1ccccc1N1CCN(C(=O)c2cc(OC)c(OC)c(OC)c2)CC1`, the T/C (T/C endpoint: median tumor weight (est.), dose: 12.5 mg/kg/injection, schedule: Q07DX004 (ip), vehicle: Klucel (hydroxypropylcellulose) (HPC), evaluated on day 30) is 143 % of control; the T/C (T/C endpoint: median tumor weight (est.), dose: 25.0 mg/kg/injection, schedule: Q07DX003 (ip), vehicle: Klucel (hydroxypropylcellulose) (HPC), evaluated on day 21) is 138 % of control [9 of 10 alive]; the T/C (T/C endpoint: median tumor weight (est.), dose: 100.0 mg/kg/injection, schedule: Q07DX004 (ip), vehicle: Klucel (hydroxypropylcellulose) (HPC), evaluated on day 30) was 143 % of control.
In the case of `Cc1cc(NCCCCCCCNc2cc(C)nc3cc(N)ccc23)c2ccc(N)cc2n1`, the survivor count is, setting by setting: under setting [1], 4 of 10 on day 30; under setting [2], 0 of 10 on day 30; (T/C endpoint: median tumor weight change, dose: 62.5 mg/kg/injection, schedule: Q01DX001 (ip), vehicle: saline with Tween-80) 0 of 10 on day 39; under setting [5], 0 of 10 on day 39 and 1 of 10 on day 30; under setting [6], 0 of 10 on day 39 and 2 of 10 on day 30; under setting [3], 0 of 10 on day 30 and 0 of 10 on day 39.
For the molecule `CC(=O)OC1COC(NC(=O)N(CCCl)N=O)C(OC(C)=O)C1OC(C)=O` (stereo not given), the T/C (T/C endpoint: median tumor weight (est.), dose: 3.0 mg/kg/injection, schedule: Q07DX005 (ip), vehicle: saline with Tween-80, evaluated on day 30) is 138 % of control. For the same molecule, the survivor count (T/C endpoint: median tumor weight (est.), dose: 24.0 mg/kg/injection, schedule: Q07DX004 (ip), vehicle: saline with Tween-80) is on record as 0 of 10 on day 30.
Regarding `NC(=O)/C=C/C(=O)c1c(Cl)cccc1Cl`, the survivor count was 6 of 10 on day 29 (T/C endpoint: median tumor weight change, dose: 12.5 mg/kg/injection, schedule: Q01DX001 (ip), vehicle: saline with Tween-80); 6 of 10 on day 30 (T/C endpoint: median tumor weight change, dose: 24.0 mg/kg/injection, schedule: Q01DX001 (ip), vehicle: saline with Tween-80); 3 of 10 on day 29 (T/C endpoint: median tumor weight change, dose: 25.0 mg/kg/injection, schedule: Q01DX001 (ip), vehicle: saline with Tween-80); 0 of 10 on day 29 (T/C endpoint: median tumor weight change, dose: 50.0 mg/kg/injection, schedule: Q01DX001 (ip), vehicle: saline with Tween-80); 0 of 10 on day 29 (T/C endpoint: median tumor weight change, dose: 100.0 mg/kg/injection, schedule: Q01DX001 (ip), vehicle: saline with Tween-80); 0 of 10 on day 29 and 0 of 10 on day 32 (T/C endpoint: median tumor weight change, dose: 200.0 mg/kg/injection, schedule: Q01DX001 (ip), vehicle: saline with Tween-80). In addition, the T/C (T/C endpoint: median tumor weight change, dose: 25.0 mg/kg/injection, schedule: Q01DX001 (ip), vehicle: saline with Tween-80, evaluated on day 32) is 136 % of control.
On to `CC(C)[NH-].CC(C)[NH-].O.O.[Cl][Pt+2][Cl]`, for which, where the note is “T/C endpoint: median tumor weight (est.), dose: 3.12 mg/kg/injection, schedule: Q07DX005 (ip), vehicle: dextrose, evaluated on day 30”, the T/C was 145 % of control [9 of 10 alive].
For the molecule `COc1cccc2c1C(=O)c1c(O)c3c(c(O)c1C2=O)CC(O)(/C(C)=N/NC(=O)CCC(=O)N/N=C(\C)C1(O)Cc2c(O)c4c(c(O)c2C(OC2CC(N)C(O)C(C)O2)C1)C(=O)c1c(OC)cccc1C4=O)CC3OC1CC(N)C(O)C(C)O1` (stereo not given), the T/C was 130 % of control (T/C endpoint: median tumor weight (est.), dose: 0.75 mg/kg/injection, schedule: Q07DX005 (ip), vehicle: water, evaluated on day 30) and 136 % of control (T/C endpoint: median tumor weight (est.), dose: 6.0 mg/kg/injection, schedule: Q07DX005 (ip), vehicle: water, evaluated on day 30). For the same molecule, where the note is “T/C endpoint: median tumor weight (est.), dose: 48.0 mg/kg/injection, schedule: Q07DX005 (ip), vehicle: water”, the survivor count is reported as 1 of 10 on day 30.
Turning to `c1ccc2c(c1)-c1ccccc1C1NC21` (stereo not given), the survivor count reads like this: under setting [5], 4 of 10 on day 32; under setting [6], 0 of 10 on day 32; under setting [3], 1 of 10 on day 32.
Turning to `C[C@@H]1C[C@@H]([C@H](O)CC2CC(=O)NC(=O)C2)C(=O)[C@@H](C)C1`, the survivor count by setting is: (T/C endpoint: median tumor weight change, dose: 500.0 mg/kg/injection, schedule: Q01DX001 (ip), vehicle: suspension in saline) 3 of 10 on day 28; (T/C endpoint: median tumor weight change, dose: 1000.0 mg/kg/injection, schedule: Q01DX001 (ip), vehicle: suspension in saline) 0 of 10 on day 28.
With `O=c1ssc(=Nc2ccccc2)n1-c1ccccc1`, the survivor count (T/C endpoint: median tumor weight (est.), dose: 800.0 mg/kg/injection, schedule: Q07DX005 (ip), vehicle: Klucel (hydroxypropylcellulose) (HPC)) was 4 of 10 on day 30.
Regarding `[O-][n+]1c(CN2CCCCC2)nc2cccc3c2c1-c1ccccc1-3`, the survivor count under setting [4] was 3 of 10 on day 35.
In the case of `O=c1[nH]cccc1O`, the survivor count is reported as 5 of 10 on day 46 under setting [3]; 0 of 10 on day 46 under setting [4]; 0 of 10 on day 46 (T/C endpoint: median tumor weight change, dose: 2000.0 mg/kg/injection, schedule: Q01DX001 (ip), vehicle: saline with Tween-80).
Take `O=P1(N(CCCl)CCCl)NCCCO1` (stereo not given): the survivor count was 4 of 10 (T/C endpoint: mean tumor weight, dose: 80.0 mg/kg/injection, schedule: Q01DX018 (ip), vehicle: saline); 1 of 10 on day 30 (T/C endpoint: median tumor weight (est.), dose: 150.0 mg/kg/injection, schedule: Q07DX005 (ip), vehicle: saline); 3 of 10 on day 31 (T/C endpoint: median tumor weight (est.), dose: 375.0 mg/kg/injection, schedule: Q01DX001 (ip), vehicle: saline); 1 of 9 on day 31 and 6 of 10 on day 36 (T/C endpoint: median tumor weight change, dose: 167.0 mg/kg/injection, schedule: Q01DX001 (ip), vehicle: saline); 3 of 10 on day 30 (T/C endpoint: median tumor weight change, dose: 375.0 mg/kg/injection, schedule: Q01DX001 (ip), vehicle: saline); 1 of 10 on day 37 (T/C endpoint: median tumor weight change, dose: 400.0 mg/kg/injection, schedule: Q01DX001 (ip), vehicle: saline). The T/C by setting is: (T/C endpoint: median tumor weight change, dose: 167.0 mg/kg/injection, schedule: Q01DX001 (ip), vehicle: saline, evaluated on day 29) -7 % of control; (T/C endpoint: median tumor weight change, dose: 167.0 mg/kg/injection, schedule: Q01DX001 (ip), vehicle: saline, evaluated on day 30) 3 % of control; (T/C endpoint: median tumor weight change, dose: 167.0 mg/kg/injection, schedule: Q01DX001 (ip), vehicle: saline, evaluated on day 33) -67 and -61 % of control; (T/C endpoint: median tumor weight change, dose: 250.0 mg/kg/injection, schedule: Q01DX001 (ip), vehicle: saline, evaluated on day 29) -54 % of control; (T/C endpoint: median tumor weight change, dose: 250.0 mg/kg/injection, schedule: Q01DX001 (ip), vehicle: saline, evaluated on day 30) -46 % of control; (T/C endpoint: median tumor weight change, dose: 250.0 mg/kg/injection, schedule: Q01DX001 (ip), vehicle: saline, evaluated on day 33) -72 and -71 % of control.

(Values after PubChem BioAssay AID220 (DTP/NCI, 2004).)
